Literature values as cited in US20240279226A1, “ERGOLINE-DERIVED AGONISTS OF THE 5-HT2A RECEPTOR” (priority 2021, published 2024).

The chains behind the UniProt entries cited, without tags or fusion partners.
UniProt P41595, whole entry, species assumed: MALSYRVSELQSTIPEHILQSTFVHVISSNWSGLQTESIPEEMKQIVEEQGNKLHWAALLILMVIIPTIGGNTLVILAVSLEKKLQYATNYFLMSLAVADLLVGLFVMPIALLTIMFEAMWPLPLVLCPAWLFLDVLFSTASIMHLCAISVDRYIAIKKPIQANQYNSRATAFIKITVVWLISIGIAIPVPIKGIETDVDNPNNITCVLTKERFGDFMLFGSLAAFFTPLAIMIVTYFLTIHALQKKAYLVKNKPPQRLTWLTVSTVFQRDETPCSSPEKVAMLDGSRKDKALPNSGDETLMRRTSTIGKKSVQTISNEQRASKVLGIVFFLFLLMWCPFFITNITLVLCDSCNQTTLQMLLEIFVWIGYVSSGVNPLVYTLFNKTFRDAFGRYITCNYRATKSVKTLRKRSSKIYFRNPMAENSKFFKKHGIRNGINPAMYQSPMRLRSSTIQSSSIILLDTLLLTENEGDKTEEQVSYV

Biological target: 5HT2B (Homo sapiens (Human), UniProt P41595)
Details: literature report; cited from earlier work

CCN(CC)C(=O)N[C@H]1C=C2c3cccc4[nH]cc(c34)C[C@H]2N(C)C1 [Lisuride]
activity type at 5HT2B: partial agoinst
